Reference: paper PMC5386744
Results are given in words; binding and its absence hold for the method and conditions named. For part of these data: Binding seen in cells or lysates may run through a third protein. Some results given as binding are weak or reduced against the parent protein; the word gives no strength. Each block holds one molecule with its values, some of them ahead of it.

Protein sequences, listed by entry. Tags and fused reporters are not part of them. Residues count along the entry.
UniProt P48023, residues 130-281: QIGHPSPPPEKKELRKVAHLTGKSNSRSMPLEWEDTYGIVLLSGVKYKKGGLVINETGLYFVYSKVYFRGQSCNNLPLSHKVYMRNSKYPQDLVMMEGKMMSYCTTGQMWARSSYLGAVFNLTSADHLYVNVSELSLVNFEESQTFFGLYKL
UniProt Q14790: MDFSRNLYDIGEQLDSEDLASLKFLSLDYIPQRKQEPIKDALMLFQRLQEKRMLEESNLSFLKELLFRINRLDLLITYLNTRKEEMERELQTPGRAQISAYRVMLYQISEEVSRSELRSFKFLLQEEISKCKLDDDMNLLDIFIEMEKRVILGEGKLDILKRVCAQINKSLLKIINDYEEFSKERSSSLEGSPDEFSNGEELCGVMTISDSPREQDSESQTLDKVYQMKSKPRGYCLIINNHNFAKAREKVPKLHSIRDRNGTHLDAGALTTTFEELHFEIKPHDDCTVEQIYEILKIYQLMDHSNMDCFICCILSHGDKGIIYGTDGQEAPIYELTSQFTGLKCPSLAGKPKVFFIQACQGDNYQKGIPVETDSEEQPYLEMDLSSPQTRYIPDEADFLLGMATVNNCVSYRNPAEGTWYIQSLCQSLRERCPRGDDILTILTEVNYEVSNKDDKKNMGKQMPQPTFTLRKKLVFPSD
UniProt P25445, residues 26-335: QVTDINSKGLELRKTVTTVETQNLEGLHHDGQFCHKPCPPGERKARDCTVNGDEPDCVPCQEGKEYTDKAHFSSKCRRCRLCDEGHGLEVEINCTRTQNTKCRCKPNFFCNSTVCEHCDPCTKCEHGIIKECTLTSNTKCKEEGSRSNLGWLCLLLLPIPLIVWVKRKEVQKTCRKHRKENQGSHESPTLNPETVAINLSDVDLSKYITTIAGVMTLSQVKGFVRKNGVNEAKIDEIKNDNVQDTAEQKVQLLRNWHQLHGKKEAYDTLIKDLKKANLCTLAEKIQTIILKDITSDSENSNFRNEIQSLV

Legend:
[1] = target: T1, Acid sphingomyelinase (human (endogenous in HeLa)) (UniProt P17405); assay: co-IP; anti-A-SMase antibody coupled to protein G microbeads, µMacs column; lysates of HeLa cells unstimulated or stimulated with 100 ng/mL SFF-CD95L; homogenisation buffer 40 mM HEPES pH 7.4, 150 mM KCl, 0.2% NP40; 1 hour at 4°C; Western blot for caspases
T1 sequence: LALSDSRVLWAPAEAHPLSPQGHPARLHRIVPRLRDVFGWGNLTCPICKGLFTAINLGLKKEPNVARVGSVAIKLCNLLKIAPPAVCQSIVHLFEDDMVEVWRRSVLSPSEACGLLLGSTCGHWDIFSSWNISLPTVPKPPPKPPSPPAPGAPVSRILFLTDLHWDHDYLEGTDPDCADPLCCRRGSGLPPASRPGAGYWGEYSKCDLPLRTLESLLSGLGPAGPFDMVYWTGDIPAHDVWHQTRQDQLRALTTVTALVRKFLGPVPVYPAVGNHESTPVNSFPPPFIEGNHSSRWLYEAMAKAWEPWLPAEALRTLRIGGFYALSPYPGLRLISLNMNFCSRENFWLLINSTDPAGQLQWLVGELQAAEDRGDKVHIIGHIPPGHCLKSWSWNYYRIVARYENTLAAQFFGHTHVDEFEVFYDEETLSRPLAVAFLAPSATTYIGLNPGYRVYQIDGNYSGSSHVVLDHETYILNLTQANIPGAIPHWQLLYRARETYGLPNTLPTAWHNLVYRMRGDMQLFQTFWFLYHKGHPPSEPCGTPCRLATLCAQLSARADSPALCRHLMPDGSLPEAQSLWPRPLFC

[2] = target: Strep-, Fc- and FLAG-tagged CD95 ligand (UniProt P48023); assay: immunomagnetic isolation of CD95-receptosomes (membrane fractions); SKW6.4 cells labelled on ice with 500 ng Fc-tagged CD95L and protein-G microbeads, shifted to 37°C for various times, sonicated in 0.25 M sucrose buffer without detergent; magnetic fractions separated in a free-flow magnetic chamber and blotted for CD95; only the target purified

binding [1]: binds
Molecule: Pro-caspase-8 (from UniProt Q14790 1-479) (enzyme)

binding [2]: binds
Molecule: CD95 (from UniProt P25445 26-335) (receptor)

binding [1]: binds
B1: Pro-caspase-7 (enzyme, UniProt P55210 1-303)
chain: MADDQGCIEEQGVEDSANEDSVDAKPDRSSFVPSLFSKKKKNVTMRSIKTTRDRVPTYQYNMNFEKLGKCIIINNKNFDKVTGMGVRNGTDKDAEALFKCFRSLGFDVIVYNDCSCAKMQDLLKKASEEDHTNAACFACILLSHGEENVIYGKDGVTPIKDLTAHFRGDRCKTLLEKPKLFFIQACRGTELDDGIQADSGPINDTDANPRYKIPVEADFLFAYSTVPGYYSWRSPGRGSWFVQALCSILEEHGKDLEIMQILTRVNDRVARHFESQSDDPHFHEKKQIPCVVSMLTKELYFSQ
